# PubChem BioAssay AID445 (National Center for Advancing Translational Sciences (NCATS), 2006)
# The list shows a part of the results. The main result of the screen is listed elsewhere. These columns were measured beside it and carry no call. Most of these compounds were active or inconclusive in the main read-out, so they are no random draw. Words in brackets tell the shape of the fitted curve; partial curves, single points and poor fits give uncertain potencies.
# Test: IkB Signaling
# Details: ABC-DLBCL IkBa-CBG/CBR dual luciferase ratio (green luciferase fused to IkBa over red control in OCI-Ly3 lymphoma cells), 4 h
# Source text: NIH Molecular Libraries Screening Centers Network [MLSCN]
# NIH Chemical Genomics Center [NCGC]
# Nuclear factor kappa-B (NF-kappa-B) plays an important role in normal B cell development and survival. Diffuse large B cell lymphoma (DLBCL) is the most commonly observed type of non-Hodgkin's lymphoma. Gene expression analysis has identified an activated B cell-like subtype of DLBCL (ABC-DLBCL) which expresses known NF-kappa-B target genes. […] However, targets upstream of IKK have been largely unexplored and so nodes upstream of IKK in the NF-kappa-B pathway remain untested due to the lack of chemical probes.
# A cell-sensor assay for I-kappa-B-alpha stabilization was developed with NIH investigator Dr. R. Eric Davis in Dr. Louis M. Staudt's laboratory. The assay uses green (CBG68) and red (CBR) emitting beetle luciferases [Chroma-Glo(TM) developed by Promega Corp.] where the green luciferase is fused to I-kappa-B-alpha and the red luciferase is present in its native state. Both luciferase genes are stably present in the OCI-Ly3 human ABC DLBCL cell line, but their expression is under the control of tetracycline-inducible promoters. Following the addition of doxycycline to induce expression of the luciferases, the green luminescence in control cultures rises only slowly because the CBG fusion partner I-kappa-B-alpha is targeted by IKK activity for rapid degradation. In contrast, green luminescence rises rapidly in the presence of proteasome inhibitors or IKK inhibitors. The rise in red luminescence of CBR is not affected by proteasome or IKK inhibitors, and serves as normalization for cell number and nonspecific effects. Compounds were screened as a concentration-titration series that ranged from 57 uM to 0.7 nM.
# NCGC Assay Protocol Summary:
# Cells were seeded in 1536-well plates at 5000 cells/3ul in IMDM medium containing 0.5% FBS, w/o phenol red, L-glutamine, 25 mM HEPES, 3 mg/ml sodium bicarbonate. After centrifugation for 1 min. at 1000 rpm, 23 nl of compounds or DMSO were delivered to each well using a pin tool. Then 1ul 80ng/ml doxycycline was dispensed into white solid 1536-well plates and the plates were incubated at 37C/5% C02 in a cell incubator for 4 hrs. Then 4 ul Chroma-Glo luminescent substrate mix (Promega) was added to each well. The plate was incubated at R.T. for 10-15 min. The plates were measured on a ViewLux plate reader for green luminescence (540/20 nm filter) and red luminescence (618/8 nm filter). The green and red luminescent signals were corrected for red and green luminescence filter overlap using previously determined filter calibration constants (determined using the procedure outlined in the Promega Technical Manual). The %Activity was determined from the ratio of corrected green/red luminescent values. Green luminescent and ratio %Activity was determined by normalizing to the difference in signal between basal cells (0% Activity) and cells incubated with 10 uM of the proteasome inhibitor MG-132 (100% Activity). Red luminescent %Activity was normalized to the difference between red luminesence in basal cells (0%Activity) and zero luminescence (-100% Activity).
# Concentration-response curves were fitted to the signals arising from the green luminescence (I-kappa-B-alpha-luciferase fusion; IkB-luc) and the red luminescence (unfused luciferase; luc) as well as the calculated ratio. The concentration-effect curves were then classified based on curve quality (r2), response magnitude and degree of measured activity. Compounds were then categorized based on their concentration-response curves for all three datasets (Ikb-luc, luc and ratio).
# Keywords: IKK, I-kappa-B, IkB, IkBa, cytotoxicity, luminescence, MLSMR, MLSCN, NIH Roadmap, qHTS, NCGC
# [1] = measured here: IkB-luc green channel
# [2] = measured here: control luc red channel
SMILES,AC50 [1],AC50 [2]
O=[As](O)(O)c1ccc(Cc2ccc([As](=O)(O)O)cc2)cc1,"1.58 µM [rising, single point]","3.98 µM [falling, partial curve]"
Oc1cc(Cl)c(Cl)c(Cl)c1,–,"7.94 µM [falling, full curve]"
C[C@@]12CC[C@H](O)C[C@@H]1CC[C@H]1[C@H]2C[C@@H](O)[C@]2(C)[C@@H](C3=CC(=O)OC3)CC[C@@]12O,–,"3.16 µM [falling, partial curve]"
COc1ccc(-n2c(/C=C/c3cccc(F)c3)nc3ccccc3c2=O)cc1Cl,–,"25.1 µM [falling, partial curve]"
Cc1cccc(CN2C(=O)CN=C(c3ccccc3)c3ccccc32)c1,–,"3.98 µM [falling, partial curve]"
CCCCCCn1c(N)c(C(=O)NCCN2CCOCC2)c2nc3ccccc3nc21,–,"31.6 µM [falling, single point]"
Cn1ncnc2c(=O)n(C)c(=O)nc1-2,"20 µM [rising, single point]","1.26 µM [falling, full curve]"
CN(C)C1(c2nnnn2CCOC(=O)Nc2ccc(Cl)cc2)CCCCC1,–,"15.8 µM [falling, partial curve]"
CC(=O)[O-].CC(=O)[O-].O.O.[Cd+2],"3.16 µM [rising, partial curve]",–
COc1cccc(C2SCC(=O)Nc3c2c(C)nn3-c2ccc(C)c(Cl)c2)c1OC (centres undefined),–,"25.1 µM [falling, single point]"
C[C@H]1CCC[C@H](O)CCCCCc2cc(O)cc(O)c2C(=O)O1,–,"15.8 µM [falling, partial curve]"
O=C(c1ccccc1)[C@H]1[C@H](c2ccccc2[N+](=O)[O-])N1C1CCCCC1 (some centres undefined),"5.01 µM [rising, partial curve]",–
Oc1ccc2c3c1O[C@H]1c4c(c5ccccc5n4Cc4ccccc4)C[C@]4(O)[C@H](C2)N(CC2CC2)CC[C@@]314,–,"39.8 µM [falling, partial curve]"
N#CC1=C(N)Oc2c(c(=O)oc3ccccc23)C1c1cccnc1 (centres undefined),–,"7.94 µM [falling, partial curve]"
O=c1c2ccccc2nc(/C=C/c2ccccc2F)n1-c1cccc(O)c1,–,"5.01 µM [falling, single point]"
Cc1cccc(-c2nn3c(=O)cc(CN4CCN(C(=O)COc5ccc(Cl)cc5)CC4)nc3s2)c1,–,"20 µM [falling, partial curve, poor fit]"
O=S1(=O)N(Cc2ccccc2Cl)CCCN1Cc1ccccc1Cl,–,"15.8 µM [falling, partial curve]"

# Looked up above:
# Value of O=c1c2ccccc2nc(/C=C/c2ccccc2F)n1-c1cccc(O)c1 under AC50 [2]: 5.01 µM [falling, single point]
# Value of Cc1cccc(-c2nn3c(=O)cc(CN4CCN(C(=O)COc5ccc(Cl)cc5)CC4)nc3s2)c1 under AC50 [2]: 20 µM [falling, partial curve, poor fit]
